According to article PMC5611384:
Results are given in words; binding and its absence hold for the method and conditions named. In cells and extracts the contact can be indirect. Some results given as binding are weak or reduced against the parent protein; the word gives no strength.

Chains of the proteins cited; added tags and fusions are not shown.
UniProt O35800: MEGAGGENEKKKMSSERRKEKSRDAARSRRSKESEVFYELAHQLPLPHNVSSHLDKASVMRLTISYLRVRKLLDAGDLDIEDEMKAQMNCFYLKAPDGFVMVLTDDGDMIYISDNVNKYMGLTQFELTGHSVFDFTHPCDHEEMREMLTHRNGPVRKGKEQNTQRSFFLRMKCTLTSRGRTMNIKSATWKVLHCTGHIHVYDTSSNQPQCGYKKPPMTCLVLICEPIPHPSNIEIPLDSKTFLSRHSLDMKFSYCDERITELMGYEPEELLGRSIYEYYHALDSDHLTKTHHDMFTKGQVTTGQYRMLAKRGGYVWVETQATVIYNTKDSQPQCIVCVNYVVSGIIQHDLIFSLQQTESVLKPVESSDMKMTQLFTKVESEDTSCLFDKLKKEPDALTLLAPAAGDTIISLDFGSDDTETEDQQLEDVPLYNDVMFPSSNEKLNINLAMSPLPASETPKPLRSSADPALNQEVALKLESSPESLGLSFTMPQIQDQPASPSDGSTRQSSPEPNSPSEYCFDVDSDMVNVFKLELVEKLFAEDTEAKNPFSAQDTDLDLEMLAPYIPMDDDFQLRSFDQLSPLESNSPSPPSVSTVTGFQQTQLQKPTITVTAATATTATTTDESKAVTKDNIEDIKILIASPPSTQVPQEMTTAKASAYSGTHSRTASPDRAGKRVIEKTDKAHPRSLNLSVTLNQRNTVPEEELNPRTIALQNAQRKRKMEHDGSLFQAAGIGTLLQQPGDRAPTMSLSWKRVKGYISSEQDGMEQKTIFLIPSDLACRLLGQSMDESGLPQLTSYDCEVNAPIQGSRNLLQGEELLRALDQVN

Biological target: T1, ubiquitin-specific protease 8 (rat (endogenous in PC12)) (UniProt D3ZN39)
T1 sequence: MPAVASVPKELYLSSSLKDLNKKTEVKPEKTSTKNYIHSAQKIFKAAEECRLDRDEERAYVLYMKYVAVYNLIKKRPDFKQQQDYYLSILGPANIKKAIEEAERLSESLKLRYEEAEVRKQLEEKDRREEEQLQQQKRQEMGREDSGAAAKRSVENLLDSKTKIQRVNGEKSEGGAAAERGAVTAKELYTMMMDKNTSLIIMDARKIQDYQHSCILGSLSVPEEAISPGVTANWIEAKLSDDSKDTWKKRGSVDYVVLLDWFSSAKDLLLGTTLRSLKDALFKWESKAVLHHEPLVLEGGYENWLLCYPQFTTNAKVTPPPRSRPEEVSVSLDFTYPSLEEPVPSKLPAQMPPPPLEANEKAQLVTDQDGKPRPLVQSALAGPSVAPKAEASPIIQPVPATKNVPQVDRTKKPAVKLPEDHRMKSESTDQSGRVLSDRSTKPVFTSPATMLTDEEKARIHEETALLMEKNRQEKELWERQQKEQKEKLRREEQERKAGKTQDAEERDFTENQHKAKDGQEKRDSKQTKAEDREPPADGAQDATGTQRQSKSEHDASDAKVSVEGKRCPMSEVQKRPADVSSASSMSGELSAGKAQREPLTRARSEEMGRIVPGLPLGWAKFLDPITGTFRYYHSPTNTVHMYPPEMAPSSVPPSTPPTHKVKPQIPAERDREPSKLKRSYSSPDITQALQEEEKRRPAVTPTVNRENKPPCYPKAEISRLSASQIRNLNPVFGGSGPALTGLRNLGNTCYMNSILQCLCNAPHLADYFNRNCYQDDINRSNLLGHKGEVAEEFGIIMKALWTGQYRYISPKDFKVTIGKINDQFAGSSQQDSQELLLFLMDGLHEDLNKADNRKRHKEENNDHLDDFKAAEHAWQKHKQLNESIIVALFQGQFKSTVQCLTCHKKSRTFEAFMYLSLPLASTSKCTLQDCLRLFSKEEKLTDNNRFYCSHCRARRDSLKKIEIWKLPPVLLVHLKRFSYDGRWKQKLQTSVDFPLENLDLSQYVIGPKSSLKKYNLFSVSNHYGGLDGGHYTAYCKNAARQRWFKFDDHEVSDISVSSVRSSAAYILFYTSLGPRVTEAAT
Experiment: co-IP; PC12 cells under OGD treatment (also after infection with Ad-si-control, Ad-si-Nrdp1 or Ad-Nrdp1), lysed in RIPA buffer; supernatant incubated overnight at 4°C with 4 μg anti-USP8, Dynabeads protein A; immunoblot with anti-HIF-1α; control rabbit IgG

binding: binds
Substance: hypoxia inducible factor-1α (from UniProt O35800 1-825)
